62 compounds from PubChem BioAssay AID493014 (National Center for Advancing Translational Sciences (NCATS), 2011) can be followed below.

This is one part of the list. The main result of the screen is listed elsewhere. These columns were measured beside it and carry no call. The list favours compounds with an active or inconclusive main result. The note in brackets gives the kind of curve behind each potency; many fits are weak.

The nature of the assay: qHTS Assay to Find Inhibitors of Chronic Active B-Cell Receptor Signaling. As to conditions: ABC-DLBCL IkBa-CBG/CBR reporter, luminescence ratio (green luciferase fused to IkBa over red control in TMD8 lymphoma cells), 4 h. In outline:
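TMD8 ABC-DLBCL cells carrying doxycycline-inducible green luciferase fused to IkappaBalpha plus unfused red luciferase were exposed to compounds (up to 46 uM) for 4 hrs at 37C. Activity came from the overlap-corrected green/red luminescence ratio.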

The mark [1] stands for this setting: measured here: CBR red luminescence, cell number.
Setting [2] is: measured here: IkBa-CBG green luminescence.

As for `COc1ccc(-n2nc(C(=O)NCC(=O)N3CCCCCC3)c3ccccc3c2=O)cc1Cl`, the AC50 under setting [1] is 31.6 µM [falling, single point].

For `Cc1ccccc1C(=O)NC(=S)Nc1ccc2[nH]c(=O)[nH]c2c1`, the AC50 under setting [1] is 0.794 µM [falling, full curve, poor fit].

`CCc1ccc2nc3n[nH]c(N)c3cc2c1`: the AC50 under setting [2] was 15.8 µM [falling, single point].

As for `CCCn1c(N)c(C(=O)CSc2ncnc3sccc23)c(=O)n(C)c1=O`, under setting [1], the AC50 is 0.411 µM [falling, full curve, poor fit].

`O=C(CS(=O)c1ccc(C(F)(F)F)cc1[N+](=O)[O-])Oc1ccccc1` (configuration not stated): the AC50 is, setting by setting: under setting [1], 8.2 µM [falling, partial curve, poor fit]; under setting [2], 23.1 µM [rising, partial curve, poor fit].

With `CSc1cccc(NC(=O)OC2CCCCCCCCCCC2)c1`, the AC50 under setting [1] is 35.5 µM [falling, single point].

Regarding `Cc1ccc(C(=O)OCC(=O)c2c[nH]c3ccccc23)cc1NC(=O)c1ccco1`, under setting [1], the AC50 is 11.2 µM [falling, single point].

On to `COc1ccc(OCCN(C)Cc2c(O)ccc3ccccc23)cc1`, for which the AC50 under setting [1] was 35.5 µM [falling, single point].

For the compound `CC1(CC(=O)NNC(=O)Nc2ccccc2)OCCCO1`, under setting [1], the AC50 was 0.501 µM [rising, full curve].

For `COc1cccc(NC(=O)c2ccc(N3C(=O)C4CC=C(C)CC4C3=O)cc2)c1` (configuration not stated), the AC50 under setting [1] was 22.4 µM [falling, single point].

With `C[C@H](c1ccccc1)n1nnc(COCc2ccccc2)c1C#CCOCc1ccccc1`, the AC50 under setting [1] is 5.62 µM [rising, single point].

Turning to `CC(C)NC(=S)NCc1cccs1`, the AC50 under setting [1] is 5.62 µM [rising, partial curve, poor fit].

On to `CCn1cnc2cc(NCc3cccc(OC)c3O)ccc21`, for which the AC50 under setting [1] is 20.6 µM [rising, single point].

Consider `COc1ccc(-c2cc(C(F)(F)F)nc(SCC(=O)Nc3ccc4c(c3)OCO4)n2)cc1OC`, for which the AC50 under setting [1] is 5.8 µM [rising, full curve, poor fit].

Take `O=C(N/C(=C\c1cccs1)C(=O)N1CCOCC1)c1ccco1`: the AC50 under setting [1] is 25.1 µM [falling, single point].

Consider `O=C(O)CC/C(=C\c1cccc(NC(=O)c2ccccc2Cl)c1)c1nc2ccccc2s1`, for which the AC50 under setting [1] was 10 µM [falling, partial curve].

Turning to `C/C(=N/NC(=O)c1sc(NS(=O)(=O)c2ccccc2)nc1C)c1ccccc1`, the AC50 under setting [1] was 3.26 µM [falling, partial curve, poor fit].

As to `O=C(CCN1C(=O)/C(=C/C=C/c2ccccc2)SC1=S)Nc1nccs1`, the AC50 under setting [1] is 10 µM [falling, partial curve].

For the compound `CCC1CCCCN1C(=O)Nc1cc(Cl)ccc1OC` (configuration not stated), the AC50 under setting [1] was 12.6 µM [rising, single point].

In the case of `CCn1c(SCC(=O)N2c3ccccc3Sc3ccccc32)nnc1-c1ccco1`, the AC50 under setting [1] is 20.6 µM [falling, partial curve, poor fit].

Take `CN(C)c1nc(-c2ccccc2)ns1`: under setting [1], the AC50 was 31.6 µM [rising, single point].

Consider `COc1cc(C(=O)Nc2cccc(C(C)=O)c2)cc(OC)c1OC`, for which, under setting [1], the AC50 was 20 µM [rising, single point].

`Oc1ccc(/C=N/N2CCN(C3c4ccccc4-c4ccccc43)CC2)cc1O`: the AC50 under setting [1] is 7.94 µM [falling, partial curve].

`Cc1ccnc(NC(=O)c2ccc(Cl)c(S(=O)(=O)N3CCCC3)c2)c1`: the half-maximal activity concentration (AC50) under setting [1] was 23.1 µM [falling, single point].

For the compound `COc1ccc(S(=O)(=O)Nc2cccc(C)n2)c2ccccc12`, the AC50 under setting [1] was 8.2 µM [rising, partial curve].

With `COc1ccc(-c2noc(CCCC(=O)O)n2)cc1`, the AC50 is 29.1 µM [falling, single point] under setting [1] and 0.184 µM [rising, full curve, poor fit] under setting [2].

Regarding `COC(=O)c1ccccc1NC(=S)NC(=O)c1ccc2c(c1)OCO2`, under setting [1], the AC50 was 1.78 µM [falling, full curve].

Consider `Cc1c(C(=O)NCC2CCCO2)oc2ccc(S(=O)(=O)N3CCCC3)cc12` (configuration not stated), for which the AC50 under setting [1] was 9.2 µM [rising, partial curve].

For `C/C(CC(=O)Nc1cc(C)ccn1)=N\NC(=O)c1cccc(C)c1O`, the AC50 under setting [1] is 22.4 µM [falling, single point].

On to `O=C(CCNC(=O)c1ccc(Br)cc1)NCC1COc2ccccc2O1` (configuration not stated), for which the AC50 under setting [1] is 5.01 µM [rising, single point].

For `Cc1csc(NC(=O)CSc2nc(C(C)C)nc3ccccc23)n1`, under setting [1], the AC50 is 0.282 µM [falling, full curve, poor fit].

Turning to `Cc1cc2c(Nc3cccc(O)c3)ncnc2s1`, the AC50 under setting [1] is 35.5 µM [falling, single point].

Take `CCOCc1c(C(=O)N2CCN(CC(=O)Nc3ccc(F)cc3)CC2)oc2ccccc12`: the AC50 under setting [1] is 4.61 µM [falling, full curve, poor fit].

As to `COCc1cc(=O)n2[nH]c(-c3cccc(Br)c3)cc2n1`, the AC50 under setting [1] is 8.2 µM [falling, partial curve, poor fit].

`Nc1nc(SCc2nc3scc(-c4ccccc4)c3c(=O)[nH]2)n[nH]1`: under setting [1], the AC50 was 16.4 µM [rising, single point].

On to `Cc1ccc(C(=O)N/C(=C\c2ccc(-c3ccccc3[N+](=O)[O-])o2)C(=O)NCCN(C)C)cc1`, for which the AC50 under setting [1] is 7.08 µM [falling, partial curve, poor fit].

As to `Cn1nc(-c2ccccc2)c(CSc2ccccc2)c1Cl`, under setting [1], the AC50 was 16.4 µM [rising, partial curve].

Regarding `CCCCCCN(C(=O)CCCCCN1C(=O)NC(c2ccccc2)C(C(=O)OCc2ccccc2)=C1C)C(C(=O)NCCCC)c1ccc(OCC(=O)OC)c(C(=O)OC)c1` (configuration not stated), under setting [1], the AC50 was 35.5 µM [falling, single point].

For the compound `CCOC(=O)N1CCC(NC(=O)CSCc2cnn(-c3ccccc3)c2-n2cccc2)CC1`, the AC50 under setting [1] is 12.6 µM [falling, partial curve, poor fit].

For `C#CCOc1ccc(/C=C2/C(=O)ON=C2C)cc1OCC`, the AC50 under setting [1] was 3.55 µM [falling, single point].

For the compound `Cc1ccc(S(=O)(=O)CC(CN2CCCCC2)N2CCCCC2)cc1` (configuration not stated), the AC50 under setting [2] is 11.2 µM [rising, partial curve, poor fit].

For `O=C(/C=C/c1cn(-c2ccccc2)nc1-c1cccnc1)c1ccco1`, under setting [1], the AC50 was 8.91 µM [falling, partial curve].

Consider `Cc1onc(-c2ccccc2)c1C(=O)NNC(=O)c1ccccc1O`, for which the AC50 under setting [1] was 32.6 µM [falling, single point].

In the case of `Cc1ccc(OCC(=O)Nc2ccc3c(c2)CCC3)c([N+](=O)[O-])n1`, the AC50 under setting [1] was 7.94 µM [rising, partial curve, poor fit].

On to `CCOC(=O)[C@H]1[C@H]2COc3ccc(C)cc3[C@@H]2N2C(=O)c3ccccc3NC(=O)[C@@]12C`, for which the AC50 under setting [1] was 29.1 µM [falling, single point].

For the compound `Cc1noc(C)c1C(=O)OCC(=O)Nc1cc(S(=O)(=O)N2CCOCC2)ccc1Cl`, under setting [1], the AC50 was 8.91 µM [falling, partial curve].

On to `CCC(=O)Nc1nc(-c2ccccc2)ns1`, for which the AC50 under setting [1] is 23.1 µM [falling, single point] and the AC50 under setting [2] is 4.61 µM [rising, full curve, poor fit].

`C=CCn1c(COc2ccc(F)cc2)nnc1SCC(=O)Nc1cccc(S(N)(=O)=O)c1`: under setting [1], the AC50 was 31.6 µM [falling, single point].

As for `CNC(=O)[C@H]1O[C@@H](n2cnc3c(NCc4cccc(I)c4)ncnc32)[C@H](O)[C@@H]1O`, the AC50 by setting is: under setting [1], 9.2 µM [rising, partial curve]; under setting [2], 7.31 µM [falling, partial curve].

`COc1ccc(NC(=O)CSc2nc(=O)n(CCN3CCOCC3)c3c2CCC3)c(OC)c1`: the AC50 under setting [1] is 29.1 µM [falling, single point].

As to `O=C(Cc1cccs1)Nc1nc2ccccc2s1`, the AC50 under setting [1] is 11.2 µM [falling, single point].

Take `O=S1(=O)[C@H]2C[C@@H]3C=C[C@@]2(CN1Cc1ccc(Cl)cc1)O3`: under setting [1], the AC50 was 25.1 µM [falling, single point].

Consider `CCCN1CCC(=NNC(=O)CSc2cc(C)c(Br)cc2C)CC1`, for which, under setting [1], the AC50 was 0.82 µM [falling, full curve, poor fit].

For the compound `COc1cc(/C=N/Nc2nc3c(c(=O)n(C)c(=O)n3C)n2Cc2ccccc2)ccc1OC(=O)c1ccco1`, the AC50 under setting [1] is 9.2 µM [falling, partial curve, poor fit].

For the compound `C/C=C/C(=O)N(CC)c1ccccc1C`, under setting [1], the AC50 is 10 µM [rising, partial curve, poor fit].

Turning to `COc1ccc(-c2nc3ccccc3c(=O)n2CCOc2ccc(C)cc2C)cc1`, the AC50 under setting [1] was 1.3 µM [rising, full curve].

As for `O=C(/C=C/c1ccco1)Nc1cccc(C(=O)Nc2ccccc2C(=O)O)c1`, the AC50 under setting [1] is 4.47 µM [falling, partial curve].

For `c1ccc(CCc2nc(-c3ccccn3)no2)cc1`, the AC50 under setting [1] is 18.4 µM [falling, partial curve].

Consider `CS(=O)(=O)c1ccc2nc(NC(=O)Nc3cccc(Cl)c3)sc2c1`, for which the AC50 under setting [1] is 3.98 µM [rising, partial curve, poor fit].

`COc1ccc(CNCCC(c2ccc(F)cc2)c2ccc(OC(C)C)cc2)cc1OC` (configuration not stated): the half-maximal activity concentration (AC50) under setting [1] is 15.8 µM [falling, single point].

In the case of `NNC(=O)COc1ccc(-c2n[nH]c(C(F)(F)F)c2-c2ccc(Br)cc2)c(O)c1`, the AC50 was 5.17 µM [falling, full curve] under setting [1] and 5.17 µM [rising, full curve, poor fit] under setting [2].

Turning to `COc1ccccc1CNC(=O)CCc1c(C)nc2cc(-c3ccccc3OC)nn2c1C`, the AC50 under setting [1] was 0.251 µM [falling, full curve, poor fit].
